In the supplement of paper PMC10849652:
Some of the results follow.

Protein sequences, listed by entry. Tags and fused reporters are not part of them. Lines headed by an entry give the natural chain unless they say otherwise; changes in a name come on top.
UniProt Q9BYV8: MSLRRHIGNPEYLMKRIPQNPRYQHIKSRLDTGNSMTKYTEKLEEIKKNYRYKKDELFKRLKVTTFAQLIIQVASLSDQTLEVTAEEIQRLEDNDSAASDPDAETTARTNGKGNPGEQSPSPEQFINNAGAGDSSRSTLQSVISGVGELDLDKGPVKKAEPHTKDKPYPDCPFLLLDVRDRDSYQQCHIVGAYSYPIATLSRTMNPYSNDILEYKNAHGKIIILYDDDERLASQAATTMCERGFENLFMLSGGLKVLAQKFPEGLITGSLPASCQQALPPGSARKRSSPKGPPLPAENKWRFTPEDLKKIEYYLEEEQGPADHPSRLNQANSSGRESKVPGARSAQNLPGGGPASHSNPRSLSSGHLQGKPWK
UniProt Q9NRR3: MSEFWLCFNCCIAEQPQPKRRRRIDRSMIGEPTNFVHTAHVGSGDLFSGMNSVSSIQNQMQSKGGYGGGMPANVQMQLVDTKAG
UniProt O75956: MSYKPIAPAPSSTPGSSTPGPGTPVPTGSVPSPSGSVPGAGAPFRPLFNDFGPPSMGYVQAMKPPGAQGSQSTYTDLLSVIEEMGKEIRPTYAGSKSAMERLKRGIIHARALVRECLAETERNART
UniProt Q86XR8: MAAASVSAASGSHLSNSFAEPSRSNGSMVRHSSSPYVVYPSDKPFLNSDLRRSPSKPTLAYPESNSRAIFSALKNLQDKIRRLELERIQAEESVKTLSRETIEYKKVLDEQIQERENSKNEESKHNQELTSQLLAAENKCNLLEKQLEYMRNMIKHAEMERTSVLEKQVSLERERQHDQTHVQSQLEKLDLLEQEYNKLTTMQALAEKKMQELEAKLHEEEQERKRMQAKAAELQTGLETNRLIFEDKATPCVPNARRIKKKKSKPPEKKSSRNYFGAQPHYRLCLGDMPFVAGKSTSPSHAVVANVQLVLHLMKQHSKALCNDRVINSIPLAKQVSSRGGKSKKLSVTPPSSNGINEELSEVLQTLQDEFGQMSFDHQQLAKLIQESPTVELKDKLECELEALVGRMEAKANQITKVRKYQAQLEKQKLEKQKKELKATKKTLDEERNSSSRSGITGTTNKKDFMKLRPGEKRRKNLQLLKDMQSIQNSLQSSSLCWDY
UniProt O14519: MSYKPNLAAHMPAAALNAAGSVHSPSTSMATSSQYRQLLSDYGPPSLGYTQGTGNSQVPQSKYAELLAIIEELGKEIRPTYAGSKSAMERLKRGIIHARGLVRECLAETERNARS
UniProt O14613: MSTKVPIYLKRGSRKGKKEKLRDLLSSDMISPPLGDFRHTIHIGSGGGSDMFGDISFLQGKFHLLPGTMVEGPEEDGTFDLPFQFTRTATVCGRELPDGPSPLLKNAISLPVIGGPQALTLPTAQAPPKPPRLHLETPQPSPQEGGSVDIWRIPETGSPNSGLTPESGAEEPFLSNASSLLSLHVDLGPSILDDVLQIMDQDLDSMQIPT
UniProt Q6P2H3: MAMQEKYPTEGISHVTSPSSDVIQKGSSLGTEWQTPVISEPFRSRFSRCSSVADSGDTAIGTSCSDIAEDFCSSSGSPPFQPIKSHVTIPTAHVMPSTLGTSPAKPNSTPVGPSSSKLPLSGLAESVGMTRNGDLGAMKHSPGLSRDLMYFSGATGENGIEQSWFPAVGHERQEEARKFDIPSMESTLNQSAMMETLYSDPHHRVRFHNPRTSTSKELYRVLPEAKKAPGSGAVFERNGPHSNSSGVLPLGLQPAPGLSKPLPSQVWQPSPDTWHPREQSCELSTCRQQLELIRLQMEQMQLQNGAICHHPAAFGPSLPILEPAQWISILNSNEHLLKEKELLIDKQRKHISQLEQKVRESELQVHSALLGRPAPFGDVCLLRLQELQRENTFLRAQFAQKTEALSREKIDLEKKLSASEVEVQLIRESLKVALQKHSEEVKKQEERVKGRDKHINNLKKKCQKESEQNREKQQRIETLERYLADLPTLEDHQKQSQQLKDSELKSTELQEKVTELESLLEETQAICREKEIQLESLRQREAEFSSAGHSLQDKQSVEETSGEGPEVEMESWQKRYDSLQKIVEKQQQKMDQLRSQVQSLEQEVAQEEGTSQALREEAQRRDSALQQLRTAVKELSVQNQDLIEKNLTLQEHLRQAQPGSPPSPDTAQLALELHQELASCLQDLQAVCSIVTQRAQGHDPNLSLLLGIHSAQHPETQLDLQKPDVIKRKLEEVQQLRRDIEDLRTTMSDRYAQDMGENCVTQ
UniProt Q9NSP4: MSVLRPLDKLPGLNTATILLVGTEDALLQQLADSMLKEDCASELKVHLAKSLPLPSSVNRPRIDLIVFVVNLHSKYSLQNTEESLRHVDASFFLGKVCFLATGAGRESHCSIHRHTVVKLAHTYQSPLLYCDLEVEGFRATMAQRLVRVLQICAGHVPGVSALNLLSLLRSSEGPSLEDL
UniProt O00311: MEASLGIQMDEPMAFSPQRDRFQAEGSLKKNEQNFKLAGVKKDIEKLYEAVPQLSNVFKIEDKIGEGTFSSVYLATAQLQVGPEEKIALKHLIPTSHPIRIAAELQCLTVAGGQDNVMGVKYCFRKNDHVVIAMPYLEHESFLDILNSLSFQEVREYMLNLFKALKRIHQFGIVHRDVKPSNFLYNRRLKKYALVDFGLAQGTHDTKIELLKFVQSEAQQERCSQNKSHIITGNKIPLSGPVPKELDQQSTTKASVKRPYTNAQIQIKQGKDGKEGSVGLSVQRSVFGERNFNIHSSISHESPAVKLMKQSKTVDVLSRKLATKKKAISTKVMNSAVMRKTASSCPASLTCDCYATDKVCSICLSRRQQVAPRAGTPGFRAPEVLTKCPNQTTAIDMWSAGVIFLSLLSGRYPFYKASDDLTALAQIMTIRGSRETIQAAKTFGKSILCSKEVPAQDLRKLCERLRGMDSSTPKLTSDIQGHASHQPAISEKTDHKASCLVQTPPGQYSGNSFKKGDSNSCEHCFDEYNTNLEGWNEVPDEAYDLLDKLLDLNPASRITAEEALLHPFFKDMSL
UniProt O94986: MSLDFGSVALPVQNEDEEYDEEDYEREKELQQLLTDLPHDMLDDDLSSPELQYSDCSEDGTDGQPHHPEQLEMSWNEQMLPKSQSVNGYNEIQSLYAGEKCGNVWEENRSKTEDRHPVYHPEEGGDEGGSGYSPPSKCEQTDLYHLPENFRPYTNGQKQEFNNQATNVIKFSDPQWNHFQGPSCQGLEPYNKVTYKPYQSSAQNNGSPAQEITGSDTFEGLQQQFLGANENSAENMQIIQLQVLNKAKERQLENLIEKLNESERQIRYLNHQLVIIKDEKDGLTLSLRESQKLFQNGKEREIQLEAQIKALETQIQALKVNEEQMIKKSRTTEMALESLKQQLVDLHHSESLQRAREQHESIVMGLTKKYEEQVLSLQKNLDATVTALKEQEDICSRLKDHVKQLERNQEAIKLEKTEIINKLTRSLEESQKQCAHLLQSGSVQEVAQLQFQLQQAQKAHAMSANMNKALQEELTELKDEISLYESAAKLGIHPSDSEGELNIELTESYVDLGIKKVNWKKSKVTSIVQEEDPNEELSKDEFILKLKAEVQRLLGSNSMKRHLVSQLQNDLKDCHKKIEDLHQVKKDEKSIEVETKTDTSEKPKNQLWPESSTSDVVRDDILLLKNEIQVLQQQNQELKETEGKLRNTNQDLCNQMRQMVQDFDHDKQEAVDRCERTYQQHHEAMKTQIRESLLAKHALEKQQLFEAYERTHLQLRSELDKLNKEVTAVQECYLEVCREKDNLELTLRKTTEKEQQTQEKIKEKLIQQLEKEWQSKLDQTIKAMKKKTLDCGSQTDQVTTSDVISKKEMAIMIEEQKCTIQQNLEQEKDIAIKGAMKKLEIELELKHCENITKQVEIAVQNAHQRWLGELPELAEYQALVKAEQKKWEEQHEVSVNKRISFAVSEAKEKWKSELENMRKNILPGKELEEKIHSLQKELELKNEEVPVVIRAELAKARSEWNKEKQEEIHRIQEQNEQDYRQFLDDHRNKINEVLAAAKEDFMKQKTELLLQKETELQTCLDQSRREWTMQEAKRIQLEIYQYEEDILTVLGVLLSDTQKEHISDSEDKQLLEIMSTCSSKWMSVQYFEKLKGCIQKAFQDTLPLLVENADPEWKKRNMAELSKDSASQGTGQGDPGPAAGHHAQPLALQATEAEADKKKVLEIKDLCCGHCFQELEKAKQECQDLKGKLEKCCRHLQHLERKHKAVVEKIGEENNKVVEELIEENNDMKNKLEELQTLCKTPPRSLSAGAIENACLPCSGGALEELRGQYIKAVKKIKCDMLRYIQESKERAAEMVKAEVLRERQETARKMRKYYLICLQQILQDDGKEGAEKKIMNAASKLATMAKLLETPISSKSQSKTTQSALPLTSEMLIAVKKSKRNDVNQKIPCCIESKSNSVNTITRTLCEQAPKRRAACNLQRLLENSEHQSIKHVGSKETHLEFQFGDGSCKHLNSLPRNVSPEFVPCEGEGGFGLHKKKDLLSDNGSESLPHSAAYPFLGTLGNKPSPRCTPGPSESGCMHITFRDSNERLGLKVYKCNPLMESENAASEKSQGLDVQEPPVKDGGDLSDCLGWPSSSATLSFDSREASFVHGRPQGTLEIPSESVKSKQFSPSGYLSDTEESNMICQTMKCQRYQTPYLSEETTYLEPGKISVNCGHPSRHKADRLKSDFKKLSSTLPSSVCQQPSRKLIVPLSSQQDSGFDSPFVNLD
UniProt Q9BSY4: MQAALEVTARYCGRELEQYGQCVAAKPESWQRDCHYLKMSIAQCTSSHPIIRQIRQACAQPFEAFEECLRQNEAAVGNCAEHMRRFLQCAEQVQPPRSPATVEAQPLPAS
UniProt Q6DT37: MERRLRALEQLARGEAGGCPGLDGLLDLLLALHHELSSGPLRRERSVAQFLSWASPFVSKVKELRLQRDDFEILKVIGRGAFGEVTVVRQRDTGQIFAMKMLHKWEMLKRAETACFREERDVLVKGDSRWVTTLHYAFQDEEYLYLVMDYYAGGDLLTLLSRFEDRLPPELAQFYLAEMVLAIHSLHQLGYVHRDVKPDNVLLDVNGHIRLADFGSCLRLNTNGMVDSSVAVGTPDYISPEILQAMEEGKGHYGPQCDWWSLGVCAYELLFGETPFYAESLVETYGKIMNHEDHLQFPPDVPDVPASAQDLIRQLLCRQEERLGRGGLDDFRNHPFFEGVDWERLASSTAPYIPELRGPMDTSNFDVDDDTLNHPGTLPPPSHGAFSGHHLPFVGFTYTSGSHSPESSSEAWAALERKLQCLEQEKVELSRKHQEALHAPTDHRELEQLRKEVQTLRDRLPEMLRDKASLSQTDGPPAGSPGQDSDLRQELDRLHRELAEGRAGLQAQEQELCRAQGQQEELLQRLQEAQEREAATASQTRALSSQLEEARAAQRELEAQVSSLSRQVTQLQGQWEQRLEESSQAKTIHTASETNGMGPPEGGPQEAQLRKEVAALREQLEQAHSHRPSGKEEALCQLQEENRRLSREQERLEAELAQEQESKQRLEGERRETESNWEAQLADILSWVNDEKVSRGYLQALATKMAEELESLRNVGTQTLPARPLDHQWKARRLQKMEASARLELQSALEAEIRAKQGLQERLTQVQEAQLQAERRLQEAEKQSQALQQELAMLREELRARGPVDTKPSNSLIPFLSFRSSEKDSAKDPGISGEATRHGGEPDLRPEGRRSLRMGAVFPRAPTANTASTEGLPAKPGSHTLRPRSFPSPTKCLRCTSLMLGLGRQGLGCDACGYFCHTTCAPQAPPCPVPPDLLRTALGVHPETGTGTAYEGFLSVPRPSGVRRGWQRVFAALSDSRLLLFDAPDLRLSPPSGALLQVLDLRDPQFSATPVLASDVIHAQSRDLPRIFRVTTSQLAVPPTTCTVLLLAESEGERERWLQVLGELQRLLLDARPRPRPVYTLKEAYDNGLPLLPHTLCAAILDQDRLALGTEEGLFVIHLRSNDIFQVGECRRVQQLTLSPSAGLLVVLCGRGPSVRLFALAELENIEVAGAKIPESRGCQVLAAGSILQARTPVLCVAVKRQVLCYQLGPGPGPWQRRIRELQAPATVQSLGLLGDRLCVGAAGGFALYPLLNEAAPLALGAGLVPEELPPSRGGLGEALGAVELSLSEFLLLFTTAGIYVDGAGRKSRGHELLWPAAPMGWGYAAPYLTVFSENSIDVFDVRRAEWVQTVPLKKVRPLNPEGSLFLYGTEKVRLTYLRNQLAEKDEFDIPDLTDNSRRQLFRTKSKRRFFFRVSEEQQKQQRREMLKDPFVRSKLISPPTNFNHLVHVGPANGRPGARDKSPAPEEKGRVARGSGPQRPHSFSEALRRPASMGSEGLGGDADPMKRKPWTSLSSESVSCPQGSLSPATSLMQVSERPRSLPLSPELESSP
UniProt Q7Z7K6: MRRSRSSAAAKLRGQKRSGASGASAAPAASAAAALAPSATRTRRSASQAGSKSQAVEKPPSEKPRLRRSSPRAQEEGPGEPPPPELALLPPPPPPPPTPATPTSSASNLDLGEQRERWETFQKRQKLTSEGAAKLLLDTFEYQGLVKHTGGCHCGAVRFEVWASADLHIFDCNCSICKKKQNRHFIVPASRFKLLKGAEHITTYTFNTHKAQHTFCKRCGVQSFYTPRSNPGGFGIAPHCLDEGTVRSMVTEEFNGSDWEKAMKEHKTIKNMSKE

Columns and labels:
Assay in all cases: log2 fold change, soluble protein after heating vs DMSO (PISA); higher = thermal stabilisation; K562 cells, 10 uM, 30 min; active = over 0.2 and 3.5 SD of the protein, either way, in both replicates (recomputed)
sotrastaurin = compound: CN1CCN(c2nc(C3=C(c4c[nH]c5ccccc45)C(=O)NC3=O)c3ccccc3n2)CC1 [sotrastaurin]
In short: (§1)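 K562 cells at 2×10^6 cells/mL were given 10 μM compound for 30 min. Aliquots then went through 3 min of heating across 48°C-58°C, were pooled, and were extracted in PBS with 0.5% NP-40 at 4°C, and the supernatant after 21,000xg for 90 min was quantified by TMTpro 16plex LC-MS/MS with channel sums equalised. Thermal stability relative to control samples, from duplicates, is given as log2 fold change.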

[1] = compound: CNC(=O)C1=CC=CC=C1NC2=NC(=NC=C2Cl)NC3=C(C=C(C=C3)N4CCOCC4)OC
In short: as §1

rucaparib = compound: CNCc1ccc(-c2[nH]c3cc(F)cc4c3c2CCNC4=O)cc1 [rucaparib]
In short: as §1

encorafenib = compound: COC(=O)N[C@@H](C)CNc1nccc(-c2cn(C(C)C)nc2-c2cc(Cl)cc(NS(C)(=O)=O)c2F)n1 [encorafenib]
In short: as §1

alvocidib = compound: CN1CC[C@H](c2c(O)cc(O)c3c(=O)cc(-c4ccccc4Cl)oc23)[C@H](O)C1 [alvocidib]
In short: as §1

saracatinib = compound: CN1CCN(CCOc2cc(OC3CCOCC3)c3c(Nc4c(Cl)ccc5c4OCO5)ncnc3c2)CC1 [saracatinib]
In short: as §1

[2] = compound: CNc1nc(-c2ccc3c(N)n[nH]c3c2)cc(N2C[C@@H](C(=O)NC3CCCCC3)CC[C@H]2C)n1
In short: as §1

Tubastatin A = compound: CN1CCc2c(c3ccccc3n2Cc2ccc(C(=O)NO)cc2)C1 [Tubastatin A]
In short: as §1

defactinib = compound: CNC(=O)c1ccc(Nc2ncc(C(F)(F)F)c(NCc3nccnc3N(C)S(C)(=O)=O)n2)cc1 [defactinib]
In short: as §1

[3] = compound: COC(=O)[C@H](CCSC)NC(=O)C1=C(C=C(C=C1)NC[C@H](CS)N)C2=CC=CC=C2
In short: as §1

Measured: log2 fold change

CENPX (UniProt A8MT69)
inactive: sotrastaurin -0.132 | [1] 0.068 | rucaparib -0.046 | encorafenib -0.172

CEBPG (UniProt P53567)
inactive: alvocidib -0.062 | rucaparib 0.15 | encorafenib -0.095

CDH13 isoform 4 (UniProt P55290)
inactive: saracatinib -0.181 | [2] 0.107

CFL1 (UniProt E9PP50)
inactive: [1] 0.251

CEP120 (UniProt Q8N960)
inactive: sotrastaurin 0.171 | alvocidib 0.376 | Tubastatin A 0.114 | defactinib 0.046 | [3] -0.101

CEP41 (UniProt Q9BYV8)
inactive: sotrastaurin -0.011 | [1] -0.104 | rucaparib 0.246 | encorafenib -0.301

CDC42SE2 (UniProt Q9NRR3)
inactive: sotrastaurin -0.013 | alvocidib -0.042 | Tubastatin A 0.241 | [1] -0.097 | defactinib -0.141 | rucaparib -0.073 | encorafenib -0.067 | [3] -0.597

CDK2AP2 (UniProt O75956)
inactive: [1] -0.092 | rucaparib 0.134 | encorafenib -0.038

CHD1L (UniProt Q86WJ1)
inactive: sotrastaurin 0.086 | defactinib 0.005 | [3] 0.228

CFAP58 (UniProt Q5T655)
inactive: encorafenib 0.265
active: rucaparib -1.21

CDH5 (UniProt P33151)
inactive: sotrastaurin 0.015 | [1] 0.154 | rucaparib 0.127 | encorafenib -0.159

2 entries picked at random from those above, as already listed:
CFAP58 (UniProt Q5T655)
inactive: encorafenib 0.265
active: rucaparib -1.21

CDH5 (UniProt P33151)
inactive: sotrastaurin 0.015 | [1] 0.154 | rucaparib 0.127 | encorafenib -0.159

Following part.

CENPK (UniProt Q9BS16)
inactive: alvocidib 0.097 | [1] -0.047 | defactinib -0.197 | rucaparib 0.007 | encorafenib -0.006 | [3] -0.044

CEP170 isoform 3 (UniProt Q5SW79)
inactive: [1] -0.109

CEP57 (UniProt Q86XR8)
inactive: sotrastaurin -0.144 | alvocidib 0.04

CDK2AP1 (UniProt O14519)
inactive: sotrastaurin -0.11 | [1] -0.045 | rucaparib -0.1 | encorafenib -0.014

CEND1 (UniProt Q8N111)
inactive: sotrastaurin 0.015 | Tubastatin A 0.081 | [1] -0.064

CDCA2 (UniProt Q69YH5)
inactive: sotrastaurin -0.148 | Tubastatin A 0.217 | [1] -0.152 | defactinib -0.063 | rucaparib 0.011 | encorafenib 0.318 | [3] -0.03

CEMIP2 (UniProt Q9UHN6)
inactive: saracatinib -0.104 | Tubastatin A -0.005 | [1] 0.032 | defactinib 0.017 | rucaparib 0.046 | [2] -0.026 | encorafenib -0.1 | [3] 0.029

CDC42EP2 (UniProt O14613)
inactive: sotrastaurin -0.044 | Tubastatin A 0.14 | [1] -0.051

CEP85 (UniProt Q6P2H3)
inactive: saracatinib -0.033 | defactinib 0.064 | rucaparib 0.263 | [2] -0.021 | encorafenib 0.451 | [3] -0.05

CENPM (UniProt Q9NSP4)
inactive: saracatinib -0.021 | [1] 0.044 | [2] -0.425

CDC7 (UniProt O00311)
inactive: defactinib -0.166 | [3] 0.142

CHFR (UniProt Q96EP1)
inactive: Tubastatin A 0.12 | defactinib -0.208 | rucaparib 0.063 | encorafenib 0.088 | [3] 0.007

CFAP47 (UniProt Q6ZTR5)
inactive: saracatinib 0.001 | defactinib -0.063 | rucaparib -0.062 | [2] -0.142 | encorafenib -0.173 | [3] 0.084

CDNF (UniProt Q49AH0)
inactive: saracatinib 0.056 | defactinib -0.029 | [2] 0.056 | [3] 0.1

CEP152 (UniProt O94986)
inactive: sotrastaurin -0.094 | Tubastatin A 0.046 | [1] -0.285 | defactinib -0.044 | rucaparib -0.092 | encorafenib -0.015 | [3] 0.101

CDC6 (UniProt Q99741)
inactive: saracatinib 0.183 | [2] 0.185

CEFIP (UniProt Q711Q0)
inactive: [1] -0.182 | defactinib -0.224 | [3] -0.147

CELSR2 (UniProt Q9HCU4)
inactive: alvocidib 0.025

CHCHD5 (UniProt Q9BSY4)
inactive: sotrastaurin -0.171 | alvocidib -0.076 | [1] -0.032

CDK5RAP2 (UniProt Q96SN8)
inactive: Tubastatin A 0.202 | defactinib 0.102 | [3] -0.59

CDCA8 (UniProt Q53HL2)
inactive: sotrastaurin 0.035

CDC42BPG (UniProt Q6DT37)
inactive: [1] 0.058 | defactinib -0.04 | rucaparib 0.126 | encorafenib -0.099 | [3] -0.06

CENPV (UniProt Q7Z7K6)
inactive: sotrastaurin 0.205 | alvocidib 0.111
